Structures can show the parent of a compound that is named as a salt. ± gives the standard deviation of the averaged measurements. The list shows a part of the results. This is a noisy data set.
Test system: Salmonella enterica serovar Typhimurium ST313 D23580
Assay: normalized bacterial growth (OD600 20 h minus 0 h, interquartile-mean normalized) (fraction of plate interquartile mean); higher = more bacterial growth (less inhibition)
Details: LPM (pH 5.8, low phosphate, low Mg2+), concentration: 10 µM, temperature: 37 °C

| SMILES | normalized bacterial growth |
| --- | --- |
| CCN(CC)CC#CCOC(=O)C(O)(c1ccccc1)C1CCCCC1 (configuration not stated) [Oxybutynin Chloride] | 0.988 |
| CC(C)CCC[C@@H](C)[C@H]1CC[C@H]2[C@@H]3CC=C4CC(=O)CC[C@]4(C)[C@H]3CC[C@]12C | 1.02 |
| CC(C)N1CCN(c2ccc(OCC3COC(Cn4cncn4)(c4ccc(Cl)cc4Cl)O3)cc2)CC1 (configuration not stated) [Terconazole] | 1.1 |
| O=C1CN2Cc3c(ccc(Cl)c3Cl)N=C2N1 | 0.845 |
| C#CCCCCCCCCCCCC(O)CC(O)CO (configuration not stated) | 0.627 |
| CC1(C)CCC[C@](C)([C@H]2CC[C@]3(C)[C@@H]2[C@H](O)C[C@@H]2[C@@]4(C)CC[C@H](O)C(C)(C)[C@@H]4[C@@H](O)C[C@]23C)O1 | 0.89 |
| CC(C)NCC(O)COc1ccc(COCCOC(C)C)cc1 (configuration not stated) [Bisoprolol hemifumarate salt] | 1.01 |
| CC(C)NCC(O)COc1ccc(COCCOC(C)C)cc1 (configuration not stated) | 1.11 |
| Nc1nc(=S)c2ncn([C@@H]3O[C@H](CO)[C@@H](O)[C@H]3O)c2[nH]1 [Thioguanosine] | 0.489 |
| CC(=O)OC[C@@]1(O)C[C@@]23CC[C@@H]4c5ccoc5CC[C@@]4(C)[C@@H]2CC[C@@H]1C3 | 0.791 ± 0.15 |
| COc1cc2c(cc1CC=C(C)C)C(=O)C[C@@H](c1ccc(O)cc1)O2 | 0.991 |
| CC(N)=O [Acetamide] | 0.977 |
| COc1ccc(-c2cc(=O)c3c(O)cc(O)cc3o2)cc1O | 0.993 |
| COc1cc2ccc(=O)oc2c(OC)c1OC | 0.954 |
| O=C([O-])[C@H]1/C(=C/CO)O[C@@H]2CC(=O)N21.[Li+] | 1.12 |
| CC(=O)N[C@@H](CC(C)C)C(=O)O | 1.24 |
| Nc1nc(=O)c2nc(CNc3ccc(C(=O)N[C@@H](CCC(=O)O)C(=O)O)cc3)cnc2[nH]1 | 1.22 |
| C=CC[S+]([O-])C[C@H](N)C(=O)O (mixture of isomers) | 1.14 |
| COc1c2ccoc2nc2c(OC)c(OCC(O)C(C)(C)O)ccc12 (configuration not stated) | 0.941 |
| COc1c2ccoc2nc2c(OC)c(OCC(O)C(C)(C)O)ccc12 (configuration not stated) [Evoxine] | 0.936 |
| CCc1cccc(N(C)C(=N)Nc2cccc3ccccc23)c1 | 0.933 |

| SMILES | normalized bacterial growth |
| --- | --- |
| CN1CCc2cc3c(cc2C(=O)Cc2ccc4c(c2C1)OCO4)OCO3 | 1.09 |
| CC[C@H]1OC(=O)[C@H](C)[C@@H](O[C@H]2C[C@@](C)(OC)[C@@H](O)[C@H](C)O2)[C@H](C)[C@@H](O[C@@H]2O[C@H](C)C[C@H](N(C)C)[C@H]2O)[C@](C)(O)C[C@@H](C)/C(=N\OCOCCOC)[C@H](C)[C@@H](O)[C@]1(C)O [Roxithromycin] | 0.392 |
| CC[C@H]1OC(=O)[C@H](C)[C@@H](O[C@H]2C[C@@](C)(OC)[C@@H](O)[C@H](C)O2)[C@H](C)[C@@H](O[C@@H]2O[C@H](C)C[C@H](N(C)C)[C@H]2O)[C@](C)(O)C[C@@H](C)/C(=N\OCOCCOC)[C@H](C)[C@@H](O)[C@]1(C)O | 0.636 |
| Clc1ccc(C(Cn2ccnc2)OCc2c(Cl)cccc2Cl)c(Cl)c1 (configuration not stated) [Isoconazole] | 0.957 |
| NC(=O)N1c2ccccc2C=Cc2ccccc21 [Carbamazepine] | 0.99 |
| CC[C@@H](C)[C@@H](O)[C@H](C)C(=O)[C@H](C)/C=C(\C)C[C@H](C)[C@@H]1OC(=O)[C@H]1CC | 0.925 |
| CN(C)CCN(Cc1cccs1)c1ccccn1 [Methapyrilene hydrochloride] | 0.916 |
| N=C1Sc2ccccc2C2=NCCCN12 | 1.09 |
| COc1ccc2c(c1)OCc1c-2oc2cc(OC)ccc12 | 0.737 |
| COc1ccc([C@H]2COc3c(ccc(O)c3OC)C2)c(OC)c1O | 0.979 |
| COc1c(O[C@@H]2O[C@H](CO)[C@@H](O)[C@H](O)[C@H]2O)cc2c(c1OC)-c1ccc(SC)c(=O)cc1[C@@H](NC(C)=O)CC2 [Thiocolchicoside] | 0.732 |
| C[C@@H](N)[C@H]1CC[C@H](C(=O)Nc2ccncc2)CC1 | 0.896 |
| O=C(Cn1ccnc1[N+](=O)[O-])NCCO | 1.27 |
| CC(=O)OCC(COC(C)=O)OC(C)=O | 1.03 |
| N=C(N)SCCc1cccc(CCSC(=N)N)c1 ["1,3-PBIT dihydrobromide"] | 1.1 |
| O=c1cc(-c2ccc(O)cc2)oc2cc(O)cc(O)c12 | 1.4 |
| CCOc1cccc(C(=O)c2ccc(O)c(O)c2O)c1 | 1.05 |
| O=C(N[C@@H](Cc1ccccc1)C(=O)CCl)OCc1ccccc1 [Z-L-Phe chloromethyl ketone] | 1 |
| COc1cc(C(=O)O)cc(OC)c1O | 1.11 |
| Cc1cc2c(cc1Cl)N(C(=O)Nc1ccc(Oc3cccnc3C)nc1)CC2 | 0.73 |
| Cc1scc2c1N(C(=O)CN1CCN(C)CC1)c1ccccc1NC2=O [Telenzepine dihydrochloride] | 1.1 |

Another view of some results above.
SMILES,normalized bacterial growth
CC(C)CCC[C@@H](C)[C@H]1CC[C@H]2[C@@H]3CC=C4CC(=O)CC[C@]4(C)[C@H]3CC[C@]12C,1.02
COc1cc2c(cc1CC=C(C)C)C(=O)C[C@@H](c1ccc(O)cc1)O2,0.991
COc1ccc(-c2cc(=O)c3c(O)cc(O)cc3o2)cc1O,0.993
O=C([O-])[C@H]1/C(=C/CO)O[C@@H]2CC(=O)N21.[Li+],1.12
CC[C@H]1OC(=O)[C@H](C)[C@@H](O[C@H]2C[C@@](C)(OC)[C@@H](O)[C@H](C)O2)[C@H](C)[C@@H](O[C@@H]2O[C@H](C)C[C@H](N(C)C)[C@H]2O)[C@](C)(O)C[C@@H](C)/C(=N\OCOCCOC)[C@H](C)[C@@H](O)[C@]1(C)O,0.636
Clc1ccc(C(Cn2ccnc2)OCc2c(Cl)cccc2Cl)c(Cl)c1 (configuration not stated) [Isoconazole],0.957
NC(=O)N1c2ccccc2C=Cc2ccccc21 [Carbamazepine],0.99
CC[C@@H](C)[C@@H](O)[C@H](C)C(=O)[C@H](C)/C=C(\C)C[C@H](C)[C@@H]1OC(=O)[C@H]1CC,0.925
COc1ccc2c(c1)OCc1c-2oc2cc(OC)ccc12,0.737
"N=C(N)SCCc1cccc(CCSC(=N)N)c1 [""1,3-PBIT dihydrobromide""]",1.1
COc1cc(C(=O)O)cc(OC)c1O,1.11
Cc1scc2c1N(C(=O)CN1CCN(C)CC1)c1ccccc1NC2=O [Telenzepine dihydrochloride],1.1
